Experimental data published in the supplement of paper PMC11732987, “Enantioselective OTUD7B fragment discovery through chemoproteomics screening and high-throughput optimisation” (Communications Chemistry, 2025).
The list shows a part of the results. The data scatter; read single values as rough.

Amino acid sequences for entries named in this document (tags omitted). A change or cut given only in a name is not applied to a line headed by its entry. Residues count along the entry.
UniProt Q15643: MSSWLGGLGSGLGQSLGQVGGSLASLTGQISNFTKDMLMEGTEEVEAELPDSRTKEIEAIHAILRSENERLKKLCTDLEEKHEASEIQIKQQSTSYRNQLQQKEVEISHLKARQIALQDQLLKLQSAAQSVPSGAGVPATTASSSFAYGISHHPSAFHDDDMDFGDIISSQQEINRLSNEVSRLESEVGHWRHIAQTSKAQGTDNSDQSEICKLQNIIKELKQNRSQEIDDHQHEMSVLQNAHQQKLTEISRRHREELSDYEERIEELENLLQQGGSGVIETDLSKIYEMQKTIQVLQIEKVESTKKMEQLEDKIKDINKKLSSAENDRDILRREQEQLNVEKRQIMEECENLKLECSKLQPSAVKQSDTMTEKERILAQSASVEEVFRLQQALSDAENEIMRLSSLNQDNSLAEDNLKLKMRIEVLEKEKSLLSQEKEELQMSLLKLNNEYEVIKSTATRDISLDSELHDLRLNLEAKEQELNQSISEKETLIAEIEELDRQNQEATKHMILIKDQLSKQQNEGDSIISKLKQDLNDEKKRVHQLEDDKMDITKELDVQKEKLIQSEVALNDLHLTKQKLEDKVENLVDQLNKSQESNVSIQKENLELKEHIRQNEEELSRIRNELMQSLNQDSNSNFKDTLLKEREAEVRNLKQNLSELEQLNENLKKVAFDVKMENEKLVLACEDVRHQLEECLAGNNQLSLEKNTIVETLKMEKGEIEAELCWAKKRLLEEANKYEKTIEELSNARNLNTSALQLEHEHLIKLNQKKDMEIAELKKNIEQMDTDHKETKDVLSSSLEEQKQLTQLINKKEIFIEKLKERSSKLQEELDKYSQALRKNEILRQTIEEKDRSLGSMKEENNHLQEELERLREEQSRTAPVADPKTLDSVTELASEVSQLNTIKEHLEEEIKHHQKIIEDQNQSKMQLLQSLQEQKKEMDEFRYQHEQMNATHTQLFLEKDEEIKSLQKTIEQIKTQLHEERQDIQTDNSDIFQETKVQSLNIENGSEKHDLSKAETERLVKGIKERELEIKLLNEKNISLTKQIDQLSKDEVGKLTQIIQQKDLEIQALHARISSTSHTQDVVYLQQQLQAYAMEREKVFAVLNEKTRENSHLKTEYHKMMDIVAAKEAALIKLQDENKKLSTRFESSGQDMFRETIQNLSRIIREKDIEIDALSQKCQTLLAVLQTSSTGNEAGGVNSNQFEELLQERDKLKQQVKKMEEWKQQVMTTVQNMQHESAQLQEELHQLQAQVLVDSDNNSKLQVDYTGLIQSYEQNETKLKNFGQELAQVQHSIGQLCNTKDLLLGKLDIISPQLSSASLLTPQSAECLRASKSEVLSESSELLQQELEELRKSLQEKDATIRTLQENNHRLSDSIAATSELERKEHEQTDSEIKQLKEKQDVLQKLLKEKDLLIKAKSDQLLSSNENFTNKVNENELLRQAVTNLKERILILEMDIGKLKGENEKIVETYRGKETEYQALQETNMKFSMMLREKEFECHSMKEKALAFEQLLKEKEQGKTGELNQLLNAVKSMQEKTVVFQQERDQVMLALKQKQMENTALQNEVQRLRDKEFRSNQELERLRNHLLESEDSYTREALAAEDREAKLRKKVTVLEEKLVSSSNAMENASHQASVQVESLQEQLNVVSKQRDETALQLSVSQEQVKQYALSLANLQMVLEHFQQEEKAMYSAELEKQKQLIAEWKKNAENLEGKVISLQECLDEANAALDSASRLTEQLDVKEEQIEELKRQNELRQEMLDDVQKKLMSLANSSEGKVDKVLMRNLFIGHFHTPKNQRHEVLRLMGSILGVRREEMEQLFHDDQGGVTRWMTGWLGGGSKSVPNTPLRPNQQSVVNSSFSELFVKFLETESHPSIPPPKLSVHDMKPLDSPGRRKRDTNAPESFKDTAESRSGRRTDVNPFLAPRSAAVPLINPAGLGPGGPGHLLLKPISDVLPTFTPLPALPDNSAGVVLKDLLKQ
UniProt Q9Y4G6, 2400-2424: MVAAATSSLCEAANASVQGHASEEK
UniProt Q96HA7: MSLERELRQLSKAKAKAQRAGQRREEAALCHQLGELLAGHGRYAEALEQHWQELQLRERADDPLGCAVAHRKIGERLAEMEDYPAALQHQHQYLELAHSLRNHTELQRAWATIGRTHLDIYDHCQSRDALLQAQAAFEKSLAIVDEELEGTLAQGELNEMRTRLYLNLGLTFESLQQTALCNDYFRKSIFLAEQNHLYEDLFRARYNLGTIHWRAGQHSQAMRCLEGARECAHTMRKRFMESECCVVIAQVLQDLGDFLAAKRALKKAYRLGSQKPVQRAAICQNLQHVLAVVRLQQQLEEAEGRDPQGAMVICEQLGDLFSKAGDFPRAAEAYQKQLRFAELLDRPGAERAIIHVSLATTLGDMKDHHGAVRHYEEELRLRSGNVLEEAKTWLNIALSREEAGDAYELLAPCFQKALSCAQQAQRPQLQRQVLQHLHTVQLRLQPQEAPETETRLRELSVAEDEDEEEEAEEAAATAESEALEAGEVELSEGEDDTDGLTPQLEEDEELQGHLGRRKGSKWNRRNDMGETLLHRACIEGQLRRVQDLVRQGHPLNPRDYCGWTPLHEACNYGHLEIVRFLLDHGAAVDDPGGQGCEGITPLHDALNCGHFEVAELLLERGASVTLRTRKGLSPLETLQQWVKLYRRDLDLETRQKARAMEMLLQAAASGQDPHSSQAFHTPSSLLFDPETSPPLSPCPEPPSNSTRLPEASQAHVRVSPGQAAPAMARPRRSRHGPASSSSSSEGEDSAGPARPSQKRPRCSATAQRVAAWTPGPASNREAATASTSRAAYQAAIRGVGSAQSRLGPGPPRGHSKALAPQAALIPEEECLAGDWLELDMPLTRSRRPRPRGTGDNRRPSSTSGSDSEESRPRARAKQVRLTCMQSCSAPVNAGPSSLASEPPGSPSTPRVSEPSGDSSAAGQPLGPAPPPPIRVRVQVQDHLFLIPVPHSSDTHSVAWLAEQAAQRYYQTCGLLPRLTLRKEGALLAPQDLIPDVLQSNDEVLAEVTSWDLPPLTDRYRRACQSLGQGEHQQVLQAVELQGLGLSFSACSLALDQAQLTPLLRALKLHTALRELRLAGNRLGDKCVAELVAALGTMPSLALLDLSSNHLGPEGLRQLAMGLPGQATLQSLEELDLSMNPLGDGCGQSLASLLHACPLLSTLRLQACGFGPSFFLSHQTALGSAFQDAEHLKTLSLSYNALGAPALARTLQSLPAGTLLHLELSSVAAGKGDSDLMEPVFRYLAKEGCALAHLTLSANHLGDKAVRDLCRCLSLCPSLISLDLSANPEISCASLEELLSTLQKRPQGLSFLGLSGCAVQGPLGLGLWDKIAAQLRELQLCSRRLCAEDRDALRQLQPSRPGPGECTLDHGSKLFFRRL
UniProt Q04727: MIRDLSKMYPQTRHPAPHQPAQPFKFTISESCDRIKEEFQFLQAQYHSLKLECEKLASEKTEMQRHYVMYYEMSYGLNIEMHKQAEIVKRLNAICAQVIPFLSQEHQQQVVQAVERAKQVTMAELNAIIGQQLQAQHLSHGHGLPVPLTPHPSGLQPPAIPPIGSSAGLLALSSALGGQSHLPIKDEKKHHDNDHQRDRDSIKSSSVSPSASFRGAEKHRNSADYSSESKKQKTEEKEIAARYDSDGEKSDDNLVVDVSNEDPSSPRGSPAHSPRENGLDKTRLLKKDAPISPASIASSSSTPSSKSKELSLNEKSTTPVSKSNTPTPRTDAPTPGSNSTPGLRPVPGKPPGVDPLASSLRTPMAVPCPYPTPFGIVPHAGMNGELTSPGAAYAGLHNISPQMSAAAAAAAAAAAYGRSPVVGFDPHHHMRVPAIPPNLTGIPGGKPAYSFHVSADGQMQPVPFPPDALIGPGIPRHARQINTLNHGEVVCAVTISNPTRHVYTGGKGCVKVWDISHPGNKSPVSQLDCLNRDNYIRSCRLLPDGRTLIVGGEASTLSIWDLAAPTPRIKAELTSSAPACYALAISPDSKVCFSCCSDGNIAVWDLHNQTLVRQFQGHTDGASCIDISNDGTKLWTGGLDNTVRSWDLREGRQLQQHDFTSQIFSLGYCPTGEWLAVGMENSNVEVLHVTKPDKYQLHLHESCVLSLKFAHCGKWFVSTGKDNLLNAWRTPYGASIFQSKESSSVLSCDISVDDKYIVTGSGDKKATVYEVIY
UniProt O94826: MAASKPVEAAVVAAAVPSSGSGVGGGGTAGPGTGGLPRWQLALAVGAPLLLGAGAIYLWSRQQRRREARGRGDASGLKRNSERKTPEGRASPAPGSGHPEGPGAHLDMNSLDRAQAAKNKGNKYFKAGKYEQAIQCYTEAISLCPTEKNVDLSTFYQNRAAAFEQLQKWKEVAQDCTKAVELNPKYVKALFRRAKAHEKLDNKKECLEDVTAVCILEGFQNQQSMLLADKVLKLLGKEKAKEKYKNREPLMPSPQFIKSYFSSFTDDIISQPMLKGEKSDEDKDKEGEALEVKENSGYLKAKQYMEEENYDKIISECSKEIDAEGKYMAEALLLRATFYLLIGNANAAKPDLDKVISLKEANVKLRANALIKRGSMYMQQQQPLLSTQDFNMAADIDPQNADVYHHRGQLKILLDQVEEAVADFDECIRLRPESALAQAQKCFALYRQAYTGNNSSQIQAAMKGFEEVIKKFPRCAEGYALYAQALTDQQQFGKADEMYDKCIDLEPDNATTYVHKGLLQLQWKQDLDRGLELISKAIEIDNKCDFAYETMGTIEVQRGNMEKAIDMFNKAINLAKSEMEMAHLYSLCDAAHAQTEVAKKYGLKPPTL
UniProt Q9C0C2: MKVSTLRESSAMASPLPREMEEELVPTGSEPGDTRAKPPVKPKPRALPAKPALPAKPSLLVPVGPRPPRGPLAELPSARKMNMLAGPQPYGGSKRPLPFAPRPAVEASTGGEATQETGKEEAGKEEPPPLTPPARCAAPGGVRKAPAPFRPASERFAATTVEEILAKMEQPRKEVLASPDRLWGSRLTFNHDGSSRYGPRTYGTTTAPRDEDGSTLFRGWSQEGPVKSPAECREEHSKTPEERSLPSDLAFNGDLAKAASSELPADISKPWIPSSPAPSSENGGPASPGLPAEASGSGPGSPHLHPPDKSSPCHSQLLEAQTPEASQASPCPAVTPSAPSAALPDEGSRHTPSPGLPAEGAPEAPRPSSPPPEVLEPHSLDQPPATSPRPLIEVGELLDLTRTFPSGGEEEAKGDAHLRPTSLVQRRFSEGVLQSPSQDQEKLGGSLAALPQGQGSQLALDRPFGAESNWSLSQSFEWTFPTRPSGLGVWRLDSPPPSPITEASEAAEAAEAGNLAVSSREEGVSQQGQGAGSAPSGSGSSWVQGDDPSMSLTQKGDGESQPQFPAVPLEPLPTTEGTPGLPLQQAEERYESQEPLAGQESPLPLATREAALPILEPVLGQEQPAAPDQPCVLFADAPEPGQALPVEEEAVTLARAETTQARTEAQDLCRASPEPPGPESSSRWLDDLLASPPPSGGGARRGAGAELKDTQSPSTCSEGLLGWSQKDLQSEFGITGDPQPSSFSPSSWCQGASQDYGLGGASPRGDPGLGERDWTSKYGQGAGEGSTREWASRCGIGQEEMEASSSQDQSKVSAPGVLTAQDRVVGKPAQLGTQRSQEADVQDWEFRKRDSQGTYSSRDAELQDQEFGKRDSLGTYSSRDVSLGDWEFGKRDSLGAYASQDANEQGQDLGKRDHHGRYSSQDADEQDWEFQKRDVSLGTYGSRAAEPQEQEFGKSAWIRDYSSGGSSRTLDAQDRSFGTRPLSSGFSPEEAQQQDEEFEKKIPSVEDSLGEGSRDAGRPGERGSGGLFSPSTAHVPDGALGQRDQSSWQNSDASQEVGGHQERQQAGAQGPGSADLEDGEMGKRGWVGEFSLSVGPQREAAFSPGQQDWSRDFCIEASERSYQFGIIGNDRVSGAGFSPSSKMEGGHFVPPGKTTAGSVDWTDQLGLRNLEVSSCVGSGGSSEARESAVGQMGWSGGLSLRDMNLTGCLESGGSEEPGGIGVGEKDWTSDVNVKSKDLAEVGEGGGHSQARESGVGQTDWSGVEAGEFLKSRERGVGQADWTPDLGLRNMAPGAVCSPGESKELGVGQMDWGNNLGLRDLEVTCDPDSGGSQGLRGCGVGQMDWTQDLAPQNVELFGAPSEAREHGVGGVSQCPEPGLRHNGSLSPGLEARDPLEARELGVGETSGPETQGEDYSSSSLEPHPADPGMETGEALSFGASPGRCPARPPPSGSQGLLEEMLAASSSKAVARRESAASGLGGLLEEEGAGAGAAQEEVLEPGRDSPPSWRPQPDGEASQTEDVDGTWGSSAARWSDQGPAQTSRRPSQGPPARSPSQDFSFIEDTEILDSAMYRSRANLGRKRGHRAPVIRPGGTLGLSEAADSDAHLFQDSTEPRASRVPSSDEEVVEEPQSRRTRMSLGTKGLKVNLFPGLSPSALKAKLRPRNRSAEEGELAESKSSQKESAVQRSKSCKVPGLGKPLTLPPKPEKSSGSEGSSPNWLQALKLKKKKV
UniProt Q14142, 231-252: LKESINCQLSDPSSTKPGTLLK

compound: ClCC(=O)N[C@H]1CCCc2ccccc12; experiment: log2 mean competition ratio of IA-DTB cysteine labelling (DMSO/compound) (log2 ratio); higher = stronger cysteine engagement by compound; conditions: 50 µM; treatment time: 4 h; cell line lysate: HEK293T
Method: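 IA-DTB competitive cysteine chemoproteomics in HEK293T RIPA lysate. Lysates were treated with compound 29 or 30 at 50 or 200 µM for 4 h, then IA-DTB (500 µM, 1 h), trypsin-digested, NeutrAvidin-enriched and analysed by diaPASEF. Competition ratio = intensity DMSO / intensity compound (n=4 treated, n=64 DMSO); binding: mean log2 CR ≥ 1 and p ≤ 0.05 plus QC filters. Target is the cysteine site.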

Row | Target | log2 mean competition ratio
1 | TRIO C28 (UniProt O75962) | 0.127
2 | TMCO6 C416 (UniProt Q96DC7) | 0.0232
3 | TRIP11 C726 (UniProt Q15643) | -0.216
4 | TLN2 C1954 (UniProt Q9Y4G6) | 0.561
5 | TOP3A C190 (UniProt Q13472) | -0.0511
6 | TONSL C762 (UniProt Q96HA7) | 0.0909
7 | TRIM33 C153 | 0.0581
8 | TLE4 C529 (UniProt Q04727) | -0.28
9 | TONSL C66 (UniProt Q96HA7) | 0.238
10 | TOMM70 C502 (UniProt O94826) | -0.682
11 | TRIP12 C156 (UniProt Q14669) | 0.12
12 | TPMT C165 (UniProt P51580) | -0.0789
13 | TLN2 C2153 (UniProt Q9Y4G6) | 0.0912
14 | TMPO C518 | 0.464
15 | TNKS1BP1 C669 (UniProt Q9C0C2) | 0.139
16 | TPI1 C127 (UniProt P60174) | 0.0962
17 | TRIM14 C237 (UniProt Q14142) | -0.0165
18 | TNKS1BP1 C794 (UniProt Q9C0C2) | 0.733
19 | TMEM214 C377 (UniProt Q6NUQ4) | 0.0446
20 | TLN2 C2409 (UniProt Q9Y4G6) | -0.445

same assay, conditions: 200 µM; treatment time: 4 h; cell line lysate: HEK293T

Row | Target | log2 mean competition ratio
21 | TRIO C28 (UniProt O75962) | -0.373
22 | TMCO6 C416 (UniProt Q96DC7) | 0.065
23 | TRIP11 C726 (UniProt Q15643) | -0.297
24 | TLN2 C1954 (UniProt Q9Y4G6) | -0.289
25 | TOP3A C190 (UniProt Q13472) | -0.1
26 | TONSL C762 (UniProt Q96HA7) | 0.0846
27 | TRIM33 C153 | 0.103
28 | TLE4 C529 (UniProt Q04727) | 0.101
29 | TONSL C66 (UniProt Q96HA7) | -0.0105
30 | TOMM70 C502 (UniProt O94826) | -0.169
31 | TRIP12 C156 (UniProt Q14669) | 0.0332
32 | TPMT C165 (UniProt P51580) | -0.163
33 | TLN2 C2153 (UniProt Q9Y4G6) | -0.155
34 | TMPO C518 | 0.364
35 | TNKS1BP1 C669 (UniProt Q9C0C2) | 0.472
36 | TPI1 C127 (UniProt P60174) | -0.108
37 | TRIM14 C237 (UniProt Q14142) | 0.173
38 | TNKS1BP1 C794 (UniProt Q9C0C2) | -0.0538
39 | TMEM214 C377 (UniProt Q6NUQ4) | 0.0124
40 | TLN2 C2409 (UniProt Q9Y4G6) | -0.403
